The source of these data is publication PMC10697913.

Protein sequences, listed by entry. Tags and fused reporters are not part of them. Lines headed by an entry give the natural chain unless they say otherwise; changes in a name come on top.
UniProt B7ECY2: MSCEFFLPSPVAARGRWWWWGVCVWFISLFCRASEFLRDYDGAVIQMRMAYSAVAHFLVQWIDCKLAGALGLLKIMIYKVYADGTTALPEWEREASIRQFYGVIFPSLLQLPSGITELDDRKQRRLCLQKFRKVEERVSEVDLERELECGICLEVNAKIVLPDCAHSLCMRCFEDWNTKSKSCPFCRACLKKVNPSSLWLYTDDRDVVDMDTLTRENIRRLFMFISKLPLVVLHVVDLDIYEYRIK

The target of this experiment is T1, Cub-OsPT4 (split-ubiquitin bait, pBT3-N) (rice (Oryza sativa)) (UniProt Q8H6H2).
T1 sequence: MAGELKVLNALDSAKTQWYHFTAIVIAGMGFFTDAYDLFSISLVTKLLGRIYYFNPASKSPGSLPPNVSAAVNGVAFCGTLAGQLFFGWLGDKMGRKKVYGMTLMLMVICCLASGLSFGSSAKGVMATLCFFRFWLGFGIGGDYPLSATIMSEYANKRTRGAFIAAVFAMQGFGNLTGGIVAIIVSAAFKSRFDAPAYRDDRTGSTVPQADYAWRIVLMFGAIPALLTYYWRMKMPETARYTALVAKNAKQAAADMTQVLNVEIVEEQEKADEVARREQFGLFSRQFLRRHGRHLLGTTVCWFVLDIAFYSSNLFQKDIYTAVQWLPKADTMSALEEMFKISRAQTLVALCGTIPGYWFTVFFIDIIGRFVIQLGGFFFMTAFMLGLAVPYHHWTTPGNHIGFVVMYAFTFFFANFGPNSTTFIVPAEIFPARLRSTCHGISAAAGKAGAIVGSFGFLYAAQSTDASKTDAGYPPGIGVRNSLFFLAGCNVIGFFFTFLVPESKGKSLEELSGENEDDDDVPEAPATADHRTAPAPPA
The experiment in a line: two-hybrid; split-ubiquitin yeast two-hybrid, DUAL membrane pairwise interaction kit (Dualsystems Biotech); OsPT4 as Cub bait (pBT3-N), OsAIPR2 as NubG prey (pPR3-N).

These are yes or no findings as the source states them, for the method shown. Binding calls can cover weak binding; strength is not graded here.

“NubG-OsAIRP2 (split-ubiquitin prey, pPR3-N) (from UniProt B7ECY2)”: the binding result is “binds”.
